Test results from patent US5821061A, “Method and reagent for detecting a ligand in a sample” (Toyo Boseki Kabushiki Kaisha, priority 1995, dated 1998).
For at least one compound, name, drawing or mass did not settle the structure.

What was measured:
Assay type in all cases: biochemical
[1] = tested on: alkaline phosphatase of Bacillus badius TE3597; test: Substrate specificity of the alkaline phosphatase of Bacillus badius TE3597; conditions: enzyme of Bacillus badius TE3597
[2] = tested on: alkaline phosphatase of Bacillus badius TE3592; test: Substrate specificity of the alkaline phosphatase of Bacillus badius TE3592; conditions: enzyme of Bacillus badius TE3592
[3] = tested on: alkaline phosphatase of Bacillus badius TE3593; test: Substrate specificity of the alkaline phosphatase of Bacillus badius TE3593; conditions: enzyme of Bacillus badius TE3593
[4] = substrate specificity, p-nitrophenyl phosphate = 100

O=[N+]([O-])c1ccc(OP(=O)(O)O)cc1 [p-Nitrophenyl phosphate]
100: Relative Activity [1, 4] | Relative Activity [2, 4] | Relative Activity [3, 4]
acts on: Substrate specificity (acts on) [1] | Substrate specificity (acts on) [2] | Substrate specificity (acts on) [3]
